Source: ChEMBL document CHEMBL3988442, “University of Dundee, Small-Polar-MMV Screening Library” (2021).

The filed quantity is “Percent Effect” (%).
The record does not define 0% and 100%; most values in the screen are far below 50% and negative numbers occur (in some assays of this library far below -100).
This is an unselected part of the compounds tested.

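Whole-cell assay for inhibitors of Mycobacterium tuberculosis growth, labelled Cornell in the record; the read-out is not stated. The concentration is filed as 10 mM, unlikely as a test dose, so the dose is not known. The record gives no direction; compounds strong in two other growth screens of this library score well above the rest, so higher reads as stronger inhibition. Size under these conditions: about 53,000 compounds, about 900 of them at 50% or above in at least one test.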

SMILES,Percent Effect
Cc1cnn(C2CN(CC(=O)NCc3ccccn3)C2)c1,-0.6906
O=C(c1cnc(-c2ncccn2)s1)N1CCCC(n2cccn2)C1 (stereo unspecified),-47.7
Cc1cc(CNC(=O)NCCOc2ccc(F)c(F)c2)on1,17.11
CN(Cc1nnc(C2CC2)n1C)C1CCN(CCc2ccncc2)C1 (stereo unspecified),9.583
O=C(O)C(F)(F)F.[H][C@@]12CCCO[C@]1([H])[C@@H](Oc1ccccn1)CN2C(=O)c1ccoc1C,-3.867
[H][C@@]12CN(Cc3ccc(C#N)cc3)C[C@]1([H])OCC(=O)N2,-3.438
CS(=O)(=O)c1ccccc1-n1cc(NC(=O)CC(F)(F)F)cn1,18.55
N#Cc1cccc(Cl)c1NCCCc1nc(=O)[nH][nH]1,20.94
O=C(c1ccc(F)c(F)c1)N1CCCCC1c1nc[nH]n1 (stereo unspecified),-2.323
Cc1nnc2n1CCN(C(=O)C1CCN(Cc3ccccc3)CC1)C2,-30.59
COc1ccc(OC)c(CCNc2ncc(S(N)(=O)=O)s2)c1,-1.443
O=C1CCCN1C(CNS(=O)(=O)C1CC1)Cc1cccc(F)c1 (stereo unspecified),6.581
CCCN(Cc1cnn(C)c1)S(=O)(=O)c1cccc(F)c1C#N,3.629
c1ccc(OCCN2CCN(c3ncnc4[nH]ccc34)CC2)cc1,-35.49
N#Cc1ccc(N2CCN(c3cnccn3)CC2)c(C(F)(F)F)c1,16.37
O=C(COCc1nc(-c2ccncc2)no1)N1CCOCC1,-7.95
COCC1CN(C(=O)Nc2ccc(Cl)cc2Cl)CCO1 (stereo unspecified),1.464
CCc1ccc(C(=O)Nc2ccc(CC3CC(=O)NC3=O)cc2)cc1 (stereo unspecified),3.392
[H][C@]1([C@H](O)c2ccc(NC(=O)c3cccnc3)cc2)COCC(=O)N1,-0.5133
CN(C)CC(=O)N1CCN(C(=O)c2cccc3[nH]ncc23)CC1,11.64
COc1ccc(CC(=O)N2CCC(Nc3ccc(C)nn3)CC2)cc1,-13.31
CNC(=O)C1CN(Cc2cc(C)on2)CCN(C(C)=O)C1 (stereo unspecified),7.854
CCOCC(=O)Nc1nccn1Cc1ccccc1Cl,48.83
CC(c1ncc(C(C)(C)C)o1)N1CCN(Cc2ccncc2)CC1 (stereo unspecified),-24.89
Cc1ccoc1C(=O)NC1CCN(Cc2ccccc2C#N)CC1,-4.356
CC(C)Cn1cncc1CNC(=O)c1cccc(Cn2cccn2)c1,4.465
CC(=O)N1N=C(c2ccco2)OC1C(=O)NCCc1ccc(F)cc1 (stereo unspecified),8.596
CC(=O)c1cc(C(=O)N2CCC(CC(C)C)C2)c(=O)[nH]c1C (stereo unspecified),24.33
O=C(NCCc1noc(-c2ccccn2)n1)NCC1CCCC1,16.97
O=C1CCC[C@]2(CN(S(=O)(=O)N3CCOCC3)C[C@H]2c2cccnc2)N1,-7.533
O=C(O)c1cn(CC2CCCN(c3nc4ccccc4s3)C2)nn1 (stereo unspecified),0.5325
COCCC(=O)NCC1Cn2nnc(-c3cccc(F)c3)c2CO1 (stereo unspecified),-1.04
COc1cc(NC(=O)c2cccc(N(C)C)c2)cc(OC)c1,33.83
Cc1nnc(NC(=O)NC(C)C(=O)NC2CCCC2)s1 (stereo unspecified),-12.62
O=C(O)C(F)(F)F.[H][C@@]12CCN(c3ncccn3)C[C@]1([H])[C@H](C(=O)NCC1CC1)CCO2,8.34
Cn1cc(CN2CCc3ccc(=O)n(Cc4ccncc4)c3CC2)cn1.O=C(O)C(F)(F)F.O=C(O)C(F)(F)F,18.58
COCCN1Cc2ccccc2C2(CCN(S(C)(=O)=O)CC2)C1,2.845
CN1CCN(C(=O)CCc2cccnc2)c2ccc(F)cc21,24.62
O=C(CNc1cc(-c2ccccc2)nc2ccnn12)NC1CC1,-15.95
CC(C)(C)c1n[nH]cc1CNC1CCC(O)CC1 (stereo unspecified),-13.15
COC(=O)c1cc2c(=O)n(C3CCCC3)ccc2nc1C,16.17
[H][C@@]12CS(=O)(=O)C[C@]1([H])N(C(=O)C1CC1)CCN2Cc1[nH]cnc1C,14.95
Cc1nc(CNC(=O)c2cc(Cn3ccnc3C(C)C)[nH]n2)sc1C,-7.755
CN1CCC(N(C)C(=O)CCc2ccc(F)c(F)c2)C1=O (stereo unspecified),-46.66
CN(Cc1csc(-c2cccs2)n1)C(=O)CN1CCOC1=O,9.521
CC(C)O[C@H]1CN(Cc2cnc3c(-c4ccccc4)cnn3c2)C[C@@H]1O,18.5
CC(NC(=O)c1ccoc1)C(=O)N(C)Cc1ccc(O)cc1 (stereo unspecified),13.05
CCCc1cc(NCc2ccc(CO)cc2)n2nccc2n1,12.38
CN(Cc1noc2c1CCCC2)C(=O)C1Cc2ccccc2CN1C (stereo unspecified),-4.652
CCc1ccc(CNc2cc(-c3ccoc3C)nn2CCO)o1,26.04
O=C(c1ccsc1)N1CC(c2nc(-c3ccc[nH]c3=O)no2)C1,-31.78
Cc1ccc(O)c(C(=O)N2CCC(CNC(=O)OC(C)(C)C)C2)c1 (stereo unspecified),-27.07
O=c1cc(CSc2nnc[nH]2)nc2sc3c(n12)CCCC3,10.96
Cc1nn(C)c2nc(N3CCCCC3c3cccnc3)sc12 (stereo unspecified),21.42
CCOC(=O)Cn1ccc(O)c(Cc2ccc(Cl)cc2Cl)c1=O,49.93
CS(=O)(=O)c1ccc(NCc2ccccc2)cn1,23.91
Cl.Cl.c1ccc(OC[C@@H]2CCC[C@@]23CNCCO3)nc1,-25.91
CCN(C(=O)CN1CCCC1c1ccc(OC)cc1)c1ccccc1 (stereo unspecified),14.85
Cc1csc2c(C3CCN(CCCOc4ccccc4)CC3)nc(C)n12,35.94
Cn1nc(COc2cccnc2)c2c1CCN(c1cnccn1)C2.O=CO.O=CO,13.97
[H][C@]12CC[C@]([H])(CN(Cc3[nH]cnc3C)C1)N(C(=O)CCn1cncn1)C2,5.77
CN1CCC(O)(CNCc2ccc(F)c(C(F)(F)F)c2)CC1,34.65
c1nc(N2CCCC2Cn2cncn2)c2ccsc2n1 (stereo unspecified),-27.11
Cc1ccc(-n2ncc(C(=O)NC3CC(C)(C)NC(C)(C)C3)c2N)cc1,-13.77
COc1cc(CN2CCC(COCc3ccccc3)CC2)cc(OC)c1,-2.58
O=C(NCCOc1ccc(Cl)cc1)N1CCS(=O)(=O)CC1,12
CC(C)C(NC(=O)c1nc(N2CCOCC2)ncc1Cl)c1cccs1 (stereo unspecified),19.79
CCC(=O)N1CCC2(CC1)CN(CCO)Cc1ccccc12.O=C(O)C(F)(F)F,13.08
O=C(Nc1cnc(C2CC2)nc1)N1CCC(CN2CCCC2)C1 (stereo unspecified),-16.4
Cc1ncsc1CCn1ccnc1-c1cc2n(n1)CCCNC2,-12.81
Cn1cccc1C(=O)N1CCCCC12CC(=O)N(c1cccnc1)C2.O=C(O)C(F)(F)F (stereo unspecified),14.75
COCc1nc2cc(NCc3csc(C)n3)ccc2o1,107.6
O=C(CCc1nnc2ccccn2c1=O)NCc1ccco1,2.503
Cn1cc(CCNC(=O)CCc2ccc3c(c2)OCO3)cn1,4.552
FC(F)(F)Cc1noc(CN2CCCC2c2noc(C3CC3)n2)n1 (stereo unspecified),-40.53
CCNS(=O)(=O)C1CCN(C(=O)c2c(F)cc(F)cc2F)C1 (stereo unspecified),-17.11
O=C(O)C(F)(F)F.[H][C@@]12CCN(c3cccc(F)c3)C[C@@]1([H])O[C@@H](C(=O)NCc1ccco1)C2,23.62

The first 5 entries again:

SMILES,Percent Effect
Cc1cnn(C2CN(CC(=O)NCc3ccccn3)C2)c1,-0.6906
O=C(c1cnc(-c2ncccn2)s1)N1CCCC(n2cccn2)C1 (stereo unspecified),-47.7
Cc1cc(CNC(=O)NCCOc2ccc(F)c(F)c2)on1,17.11
CN(Cc1nnc(C2CC2)n1C)C1CCN(CCc2ccncc2)C1 (stereo unspecified),9.583
O=C(O)C(F)(F)F.[H][C@@]12CCCO[C@]1([H])[C@@H](Oc1ccccn1)CN2C(=O)c1ccoc1C,-3.867